A short description of this assay: qHTS Assay to Find Inhibitors of Chronic Active B-Cell Receptor Signaling. Conditions: ABC-DLBCL IkBa-CBG/CBR reporter, luminescence ratio (green luciferase fused to IkBa over red control in TMD8 lymphoma cells), 4 h. In a few lines:
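Cell line TMD8 (human ABC DLBCL), stably expressing tet-inducible CBG68-IkBa fusion and CBR; IMDM/0.5% FBS; cpd up to 46 uM; dox induction, 4 h, 37C/5% CO2; dual luminescence; green/red ratio; MG132 control.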
(Quantitative high-throughput screening tests each substance at several concentrations.)

[1] abbreviates: measured here: CBR red luminescence, cell number.
Where [2] appears, read: measured here: IkBa-CBG green luminescence.

The list shows a part of the results. Further columns of the screen follow, without active or inactive calls. Most of these compounds were active or inconclusive in the main read-out, so they are no random draw. Potencies come from curve fits of mixed quality, noted in brackets.

Usually AC50 stands for the concentration at which the activity in the assay is half-maximal. As for `CC1(C)CC(=O)c2sc(NS(=O)(=O)Cc3ccccc3)nc2C1`, the half-maximal activity concentration (AC50) under setting [1] was 2.31 µM [rising, full curve, poor fit].
Still for that read-out and setting: the result for `C(=N\NCc1ccccc1)/c1ccc2nccnc2c1` reads 22.4 µM [falling, single point]; that for `Fc1ccccc1/C=N/Nc1ncnc2ccccc12`, 11.2 µM [falling, partial curve]; that for `Cc1csc(NC(=O)c2nc(-c3ccccc3)n(-c3ccccc3)n2)n1`, 0.316 µM [rising, full curve, poor fit].
The same measure, in the same setting: in the case of `O=C(NC(=S)NCCc1ccccc1)c1ccccc1F` it was 12.6 µM [falling, partial curve]; in that of `O=C(O)c1ccccc1SCC(=O)N1CCOCC1`, 0.398 µM [rising, full curve, poor fit].
As for `COc1ccc(NC(=O)NCc2cccn2C)c(OC)c1`, the AC50 under setting [1] was 11.2 µM [falling, partial curve].
On the same count and under the same terms, the result for `COc1ccc(CNC(=O)C2C3C=CC4(CN(Cc5cccnc5)C(=O)C24)O3)cc1` (stereo not drawn) reads 4.11 µM [rising, single point]; that for `O=C(Nc1ccc(F)c(Cl)c1)C1CCN(S(=O)(=O)c2cccnc2)CC1`, 25.9 µM [falling, single point]; that for `COc1ccc2c(c1)Cc1sc(NC(=O)c3ccccc3)nc1-2`, 2.91 µM [falling, full curve].
Take `Cc1ccc(-c2csc(NC(=O)CSC3=NCCS3)n2)cc1`: under setting [1], the AC50 is 23.1 µM [falling, single point].
Still for that read-out and setting: the result for `CCCNCc1nnc(-c2ccccc2Cl)o1` reads 6.51 µM [falling, partial curve].
On the same count and under the same terms, in the case of `COc1ccc(CNS(=O)(=O)c2ccc(-n3cnnn3)c(C)c2)cc1` it was 35.5 µM [falling, single point].
As for `CC1CCCC/C1=N\NC(=S)NCCc1ccccc1` (stereo not drawn), the AC50 under setting [1] was 35.5 µM [rising, single point] and the AC50 under setting [2] is 12.6 µM [falling, partial curve, poor fit].
Consider `CC(C)(CCl)C(=O)Nc1ccc(Sc2ccc(F)cc2)cc1`, for which the AC50 under setting [1] was 35.5 µM [falling, single point].
Still for that read-out and setting: in the case of `O/N=C/c1ccccc1Oc1ccc(Cl)cc1` it was 20 µM [rising, single point].
As for `CCOC(=O)c1cc2sccc2n1Cc1ccccc1`, under setting [1], the AC50 was 7.31 µM [rising, partial curve, poor fit].
Same read-out and setting: in the case of `COC(=O)c1cccc(CN2C(=O)SC(Nc3ccccc3)C2=O)c1` (stereo not drawn) it was 3.55 µM [rising, single point]; in that of `O=C(NNS(=O)(=O)c1ccc(Cl)cc1)c1cc(-c2ccccc2)n[nH]1`, 12.6 µM [falling, partial curve, poor fit].
The same measure, in the same setting: the result for `COc1cccc(CN2CCCC(C(=O)N3CCCCC3)C2)c1` (stereo not drawn) reads 35.5 µM [rising, single point].
The same measure, in the same setting: in the case of `Cc1nc2nc(COc3ccccc3)[nH]n2c(=O)c1Cl` it was 0.291 µM [falling, full curve].
On to `CCc1ccc(S(=O)(=O)/N=C2\C=C(Nc3ccc(O)cc3)C(=O)c3ccccc32)cc1`, for which the AC50 under setting [1] is 5.01 µM [falling, full curve].
For the compound `Cc1ccc(C(=O)N/N=C\c2ccc([N+](=O)[O-])o2)cn1`, under setting [1], the AC50 is 35.5 µM [falling, single point].
Same read-out and setting: in the case of `CCOC(=O)c1cnn2c(N)c(C#N)nnc12` it was 22.4 µM [falling, single point].
On the same count and under the same terms, the result for `COc1cc(/C=N/NC(=O)c2cc3c(ccc4ccccc43)o2)cc(OC)c1O` reads 7.08 µM [falling, partial curve]; that for `Nc1ccccc1C(=O)N/N=C1\C2CN3CCN(C2)CC1(c1ccccc1)C3`, 10.3 µM [falling, partial curve]; that for `COc1ccc(Nc2cc(C(=O)NCCCN(C)Cc3ccccc3)c3ccccc3n2)cc1OC`, 7.94 µM [falling, partial curve, poor fit].
For `O=C(Nc1ccc(F)cc1)c1oc2ccccc2c1NC(=O)C1CC1`, under setting [1], the concentration at half-maximal activity (AC50) is 0.398 µM [falling, full curve].
Same read-out and setting: in the case of `N#CC1=C(N)Nc2ncnn2C1c1ccc(F)cc1` (stereo not drawn) it was 18.4 µM [falling, single point]; in that of `COc1ccccc1NC(=O)C(=O)NCCC1CCCCN1S(=O)(=O)c1ccccc1` (stereo not drawn), 2.59 µM [falling, partial curve, poor fit].
On the same count and under the same terms, the result for `CCOC(=O)c1c(NC(=O)CN2CCN(C(=O)c3ccco3)CC2)sc2c1CCCC2` reads 14.6 µM [falling, partial curve].
Regarding `CC1CC(C)CN(C(=O)c2ccc3c(c2NCCO)C(=O)c2ccccc2C3=O)C1` (stereo not drawn), the half-maximal activity concentration (AC50) under setting [2] was 5.17 µM [rising, partial curve, poor fit].
Consider `Cc1nn(Cc2ccccc2)c2sc(C(=O)NCc3cccnc3)cc12`, for which the AC50 under setting [1] is 5.01 µM [rising, full curve, poor fit].
Same read-out and setting: the result for `N#C/C(=C/c1cccc(O)c1)C(=O)NCc1ccc(Cl)cc1` reads 31.6 µM [falling, single point]; that for `Cc1cccc(NC(=O)CSc2nnc(-c3ccccc3C)o2)c1`, 10.3 µM [rising, partial curve, poor fit].
The same measure, in the same setting: the result for `Fc1ccccc1Nc1nc2ccccc2o1` reads 11.2 µM [falling, partial curve, poor fit].
Same read-out and setting: the result for `CCCOc1ccc(-c2c(C(=O)N/N=C/c3ccncc3)nnn2-c2nonc2N)cc1` reads 12.6 µM [rising, partial curve, poor fit]; that for `Cc1cc(C)c2c(=O)n(CC(=O)Nc3ccc(Cl)cc3)sc2n1`, 25.1 µM [falling, single point].
With `COc1cccc(/C(C)=N/Nc2ccc(S(=O)(=O)N3CCCCC3)cn2)c1`, the AC50 under setting [1] was 0.231 µM [rising, full curve, poor fit].
Consider `COc1cc(CCC(=O)NCc2ccc(Cl)cc2)cc(OC)c1OC`, for which, under setting [1], the AC50 was 5.62 µM [rising, single point].
For the compound `CCOC(=O)c1ccc(NC(=S)Nc2cccc(C)n2)cc1`, the concentration at half-maximal activity (AC50) under setting [1] is 1.3 µM [rising, full curve, poor fit].
Same read-out and setting: the result for `COc1cccc(/C=N/n2cnc3cc(C)c(C)cc32)c1OC` reads 25.1 µM [rising, single point].
The same measure, in the same setting: in the case of `C=C[C@]1(C)C=C2CCC3[C@](C)(CCC[C@@]3(C)C(=O)O)C2CC1` (stereo partly drawn) it was 5.8 µM [rising, partial curve, poor fit]; in that of `O=C(COC(=O)c1cc(Cl)ccc1O)Nc1ccc2c(c1)OCCO2`, 9.2 µM [falling, partial curve].
Same read-out and setting: in the case of `Cc1nc(-c2ccc(NC(=O)c3ccco3)cc2)cs1` it was 1.58 µM [falling, full curve].
With `C/C(=N\NC(=O)c1ccc(NS(=O)(=O)c2cccs2)cc1)c1ccc(O)cc1O`, the AC50 under setting [1] was 7.08 µM [falling, partial curve].
The same measure, in the same setting: the result for `Cc1ccc(NC(=O)CCN2CCN(C/C=C/c3ccccc3)CC2)cc1` reads 8.2 µM [rising, partial curve, poor fit]; that for `Cc1cc(N2CCCC2)nc(SCC(=O)c2ccccc2)n1`, 0.326 µM [rising, full curve, poor fit].
On the same count and under the same terms, in the case of `c1ccc(COc2ccc3nocc3c2)cc1` it was 2.31 µM [rising, full curve, poor fit]; in that of `CC(C)c1ccc(/C=C/C(=O)CCC(=O)O)cc1`, 28.2 µM [falling, single point].
For `COc1ccc(OCCOC(=O)c2[nH]c(C)c(C(C)=O)c2C)cc1`, the AC50 under setting [2] was 10 µM [falling, partial curve].
In the case of `Cc1cc(C)c(C#N)c(Nc2ccccc2)n1`, the AC50 under setting [1] is 6.51 µM [falling, single point].
The same measure, in the same setting: in the case of `O=C(CSc1nnc(-c2ccco2)o1)N1CCOCC1` it was 29.1 µM [rising, single point]; in that of `Cn1cc(S(=O)(=O)CC(=O)Nc2ccc3c(c2)OCCO3)c2ccccc21`, 11.6 µM [falling, partial curve, poor fit].
Same read-out and setting: the result for `Clc1ccc(-c2noc(/C=C/c3ccccc3)n2)cc1` reads 35.5 µM [rising, single point]; that for `O=C(COC(=O)/C=C/c1cccc(Cl)c1)NCc1cccs1`, 16.4 µM [rising, partial curve, poor fit].
Still for that read-out and setting: in the case of `COc1ccc2cc(CCNC(=O)c3cccc([N+](=O)[O-])c3)c(=O)[nH]c2c1` it was 17.8 µM [falling, single point].
On to `Cc1nc(C(=O)Nc2ccccc2)sc1C(=O)Nc1ccccc1`, for which, under setting [1], the AC50 is 8.91 µM [falling, partial curve].
On to `O=C(COC(=O)c1cc(=O)c2ccccc2o1)NCc1ccccc1`, for which, under setting [1], the AC50 is 25.9 µM [rising, partial curve, poor fit].
Same read-out and setting: in the case of `Cc1ccc2oc(=O)c3cc(C(=O)N4CCN(C(=O)c5ccco5)CC4)sc3c2c1` it was 0.224 µM [rising, full curve, poor fit]; in that of `O=C(OCc1ccc2c(c1)OCO2)c1cccc(S(=O)(=O)N2CCCCC2)c1`, 3.26 µM [rising, partial curve, poor fit].
Same read-out and setting: the result for `Oc1ccc(Br)cc1/C=N/Nc1ncc(-c2ccccc2)cn1` reads 14.1 µM [falling, partial curve, poor fit].
Regarding `COc1ccc(CC(=O)NCc2ccc3c(c2)cc(C)n3C)cc1`, the concentration at half-maximal activity (AC50) under setting [1] was 3.16 µM [rising, partial curve, poor fit].
In the case of `OC(CNc1ncnc2sccc12)c1ccccc1` (stereo not drawn), the AC50 under setting [1] was 11.2 µM [falling, partial curve].
Same read-out and setting: the result for `COc1ccc(OC)c(/C=C/C(=O)N2CCCc3ccccc32)c1` reads 11.2 µM [falling, partial curve, poor fit]; that for `COc1ccc(/C=N/NC(=O)c2cccc(Br)c2)cc1COc1ccccn1`, 11.2 µM [falling, partial curve, poor fit]; that for `O=C(NCCc1ccc(Cl)cc1)c1ccc(CS(=O)(=O)Cc2ccc(F)cc2)o1`, 12.6 µM [rising, single point].

Source of the values: PubChem BioAssay AID493014 (National Center for Advancing Translational Sciences (NCATS), 2011).
